In article PMC8406179:
Changes are numbered by the printed parent chain. Names and notes keep the numbering of the source. Results are given in words; binding and its absence hold for the method and conditions named. In cells and extracts the contact can be indirect. Binding calls can cover weak binding; strength is not graded here. For some of these results: Where a sequence is shown, tags or fusion partners need not be part of it.

B1: HA-epitope tagged full-length RB1 (amino acid residues 1 to 928) (protein, UniProt P06400 1-928)
chain: MPPKTPRKTAATAAAAAAEPPAPPPPPPPEEDPEQDSGPEDLPLVRLEFEETEEPDFTALCQKLKIPDHVRERAWLTWEKVSSVDGVLGGYIQKKKELWGICIFIAAVDLDEMSFTFTELQKNIEISVHKFFNLLKEIDTSTKVDNAMSRLLKKYDVLFALFSKLERTCELIYLTQPSSSISTEINSALVLKVSWITFLLAKGEVLQMEDDLVISFQLMLCVLDYFIKLSPPMLLKEPYKTAVIPINGSPRTPRRGQNRSARIAKQLENDTRIIEVLCKEHECNIDEVKNVYFKNFIPFMNSLGLVTSNGLPEVENLSKRYEEIYLKNKDLDARLFLDHDKTLQTDSIDSFETQRTPRKSNLDEEVNVIPPHTPVRTVMNTIQQLMMILNSASDQPSENLISYFNNCTVNPKESILKRVKDIGYIFKEKFAKAVGQGCVEIGSQRYKLGVRLYYRVMESMLKSEEERLSIQNFSKLLNDNIFHMSLLACALEVVMATYSRSTSQNLDSGTDLSFPWILNVLNLKAFDFYKVIESFIKAEGNLTREMIKHLERCEHRIMESLAWLSDSPLFDLIKQSKDREGPTDHLESACPLNLPLQNNHTAADMYLSPVRSPKKKGSTTRVNSTANAETQATSAFQTQKPLKSTSLSLFYKKVYRLAYLRLNTLCERLLSEHPELEHIIWTLFQHTLQNEYELMRDRHLDQIMMCSMYGICKVKNIDLKFKIIVTAYKDLPHAVQETFKRVLIKEEEYDSIIVFYNSVFMQRLKTNILQYASTRPPTLSPIPHIPRSPYKFPSSPLRIPGGNIYISPLKSPYKISEGLPTPTKMTPRSRILVSIGESFGTSEKFQKINQMVCNSDRVLKRSAEGSNPPKPLKKLRFDIEGSDEADGSKHLPGESKFQQKLAEMTSTRTRMQKQKMNDSMDTSNKEEK
B2: HA-epitope tagged RB1 truncation mutant 379-928 (lacking the amino terminus) (domain or fragment, UniProt P06400 379-928)
chain: MNTIQQLMMILNSASDQPSENLISYFNNCTVNPKESILKRVKDIGYIFKEKFAKAVGQGCVEIGSQRYKLGVRLYYRVMESMLKSEEERLSIQNFSKLLNDNIFHMSLLACALEVVMATYSRSTSQNLDSGTDLSFPWILNVLNLKAFDFYKVIESFIKAEGNLTREMIKHLERCEHRIMESLAWLSDSPLFDLIKQSKDREGPTDHLESACPLNLPLQNNHTAADMYLSPVRSPKKKGSTTRVNSTANAETQATSAFQTQKPLKSTSLSLFYKKVYRLAYLRLNTLCERLLSEHPELEHIIWTLFQHTLQNEYELMRDRHLDQIMMCSMYGICKVKNIDLKFKIIVTAYKDLPHAVQETFKRVLIKEEEYDSIIVFYNSVFMQRLKTNILQYASTRPPTLSPIPHIPRSPYKFPSSPLRIPGGNIYISPLKSPYKISEGLPTPTKMTPRSRILVSIGESFGTSEKFQKINQMVCNSDRVLKRSAEGSNPPKPLKKLRFDIEGSDEADGSKHLPGESKFQQKLAEMTSTRTRMQKQKMNDSMDTSNKEEK
B3: retinoblastoma tumor suppressor protein RB1 (endogenous, HCT116) (protein, UniProt P06400 1-928)
chain: B1 chain
B4: endogenous murine Rb1 (protein, UniProt P13405 1-921)
chain: MPPKAPRRAAAAEPPPPPPPPPREDDPAQDSGPEELPLARLEFEEIEEPEFIALCQKLKVPDHVRERAWLTWEKVSSVDGILEGYIQKKKELWGICIFIAAVDLDEMPFTFTELQKSIETSVYKFFDLLKEIDTSTKVDNAMSRLLKKYNVLCALYSKLERTCELIYLTQPSSALSTEINSMLVLKISWITFLLAKGEVLQMEDDLVISFQLMLCVVDYFIKFSPPALLREPYKTAAIPINGSPRTPRRGQNRSARIAKQLENDTRIIEVLCKEHECNIDEVKNVYFKNFIPFINSLGIVSSNGLPEVESLSKRYEEVYLKNKDLDARLFLDHDKTLQTDPIDSFETERTPRKNNPDEEANVVTPHTPVRTVMNTIQQLMVILNSASDQPSENLISYFNNCTVNPKENILKRVKDVGHIFKEKFANAVGQGCVDIGVQRYKLGVRLYYRVMESMLKSEEERLSIQNFSKLLNDNIFHMSLLACALEVVMATYSRSTLQHLDSGTDLSFPWILNVLNLKAFDFYKVIESFIKVEANLTREMIKHLERCEHRIMESLAWLSDSPLFDLIKQSKDGEGPDNLEPACPLSLPLQGNHTAADMYLSPLRSPKKRTSTTRVNSAANTETQAASAFHTQKPLKSTSLALFYKKVYRLAYLRLNTLCARLLSDHPELEHIIWTLFQHTLQNEYELMRDRHLDQIMMCSMYGICKVKNIDLKFKIIVTAYKDLPHAAQETFKRVLIREEEFDSIIVFYNSVFMQRLKTNILQYASTRPPTLSPIPHIPRSPYKFSSSPLRIPGGNIYISPLKSPYKISEGLPTPTKMTPRSRILVSIGESFGTSEKFQKINQMVCNSDRVLKRSAEGGNPPKPLKKLRFDIEGADEADGSKHLPAESKFQQKLAEMTSTRTRMQKQRMNESKDVSNKEEK
B5: wild-type RB1 (expression vector, SAOS-2) (protein, UniProt P06400 1-928)
chain: B1 chain
B6: RB1^L mutant (I753A; N757A; M761A), LXCXE binding-defective RB1 (protein, UniProt P06400 1-928)
chain: B1 chain with I753A, N757A, M761A

What was measured:
[1] = molecular target: N-terminally FLAG/HA epitope-tagged MmuPV1 E7 (Mus musculus papillomavirus type 1); assay: co-IP; SAOS-2 cells cotransfected with HA-tagged RB1 (1-928, 379-928 or 1-792) and FLAG/HA-tagged MmuPV1 E7 or HPV16 E7; immunoprecipitation with FLAG antibodies, HA immunoblot
[2] = molecular target: MmuPV1 E7^D90N (Mus musculus papillomavirus type 1); assay: co-IP; HCT116 transfected with FLAG/HA-tagged MmuPV1 E7 or mutants; lysis in EBC buffer (50 mM Tris-Cl pH 8.0, 150 mM NaCl, 0.5% NP-40, 0.5 mM EDTA); anti-HA or anti-FLAG agarose; endogenous RB1 detected by immunoblot
[3] = molecular target: N-terminally FLAG/HA epitope-tagged MmuPV1 E7 (Mus musculus papillomavirus type 1); assay: as above
[4] = molecular target: N-terminally FLAG/HA epitope-tagged MmuPV1 E7 (Mus musculus papillomavirus type 1); assay: co-IP; NIH 3T3 murine fibroblasts transfected with N-terminally FLAG/HA-tagged MmuPV1 E7 or D90A; endogenous Rb1 detected by immunoblot
[5] = molecular target: N-terminally FLAG/HA epitope-tagged MmuPV1 E7 (Mus musculus papillomavirus type 1); assay: co-IP; SAOS-2 cells cotransfected with wild-type RB1 or RB1^L and MmuPV1 E7 or HPV16 E7 expression vectors

Row | Binder | binding [1] | binding [5] | other results
1 | B1 | binds | – | –
2 | B2 | binds | – | –
3 | B3 | – | – | binding [2]: binds; binding [3]: binds
4 | B4 | – | – | binding [4]: binds
5 | B5 | – | binds | –
6 | B6 | – | binds | –
